Measured values taken from patent publication US20210206856A1.
These are yes or no findings as the source states them, for the method shown. Some binding calls cover weakened binding; strength is not graded here.

Protein sequences, listed by entry. Tags and fused reporters are not part of them. Lines headed by an entry give the natural chain unless they say otherwise; changes in a name come on top. Residues count along the entry.
UniProt Q13477: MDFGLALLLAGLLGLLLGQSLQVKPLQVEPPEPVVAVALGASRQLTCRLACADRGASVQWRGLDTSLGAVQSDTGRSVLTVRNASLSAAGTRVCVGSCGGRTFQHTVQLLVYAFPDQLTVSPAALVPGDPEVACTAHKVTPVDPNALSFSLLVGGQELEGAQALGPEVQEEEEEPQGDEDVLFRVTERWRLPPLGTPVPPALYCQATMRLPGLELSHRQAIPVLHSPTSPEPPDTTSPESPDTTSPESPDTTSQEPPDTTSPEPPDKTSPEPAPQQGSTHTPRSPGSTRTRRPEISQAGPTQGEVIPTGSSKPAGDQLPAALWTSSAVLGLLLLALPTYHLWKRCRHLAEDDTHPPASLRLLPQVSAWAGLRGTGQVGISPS
human MAdCAM expressed on cells: residues 19-382 of Q13477
recombinant human MAdCAM protein: residues 19-317 of Q13477
UniProt Q61826: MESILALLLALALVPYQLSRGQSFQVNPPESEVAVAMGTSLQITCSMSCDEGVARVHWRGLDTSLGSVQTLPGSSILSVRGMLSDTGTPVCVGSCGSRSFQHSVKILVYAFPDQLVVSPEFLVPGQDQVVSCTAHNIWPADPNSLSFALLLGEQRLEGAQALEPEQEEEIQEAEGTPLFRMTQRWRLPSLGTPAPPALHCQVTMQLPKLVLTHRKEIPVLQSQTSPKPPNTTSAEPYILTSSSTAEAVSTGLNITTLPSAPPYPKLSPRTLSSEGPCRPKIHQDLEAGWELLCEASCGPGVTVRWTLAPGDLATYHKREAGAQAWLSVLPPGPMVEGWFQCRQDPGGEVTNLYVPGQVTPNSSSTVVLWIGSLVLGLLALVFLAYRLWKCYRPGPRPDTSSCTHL
mouse MAdCAM expressed on cells: residues 22-405 of Q61826
recombinant mouse MAdCAM-1: residues 22-365 of Q61826

What was measured:
[1] = target: human MAdCAM expressed on cells (human) (UniProt Q13477); assay: cell binding
[2] = target: recombinant human MAdCAM protein (human) (UniProt Q13477); assay: Octet
[3] = target: recombinant mouse MAdCAM-1 (mouse) (UniProt Q61826); assay: Octet
[4] = target: mouse MAdCAM expressed on cells (mouse) (UniProt Q61826); assay: cell binding

| Binder | binding [1] | binding [2] | binding [3] | binding [4] |
| --- | --- | --- | --- | --- |
| MAdCAM Antibody Table 1 Clone 25 (scFv) scFv: QVQLVQSGAEVKKPGASVKVSCKASGYTLTTWYMYWVRQAPGQGLEWMGWINPNRGATNYAQKFQGRVTMTRDTSTSTVYMELSSLRSEDTAVYYCAKGDLWGAMDVWGQGTLVTVSSGGGGSGGGGSGGGGSGGGGSDIQMTQSPSSLSASVGDRVTITCRASDNIGSWLAWYQQKPGKAPKLLIYAASSLQSGVPSRFSGSGSGTDFTLTISSLQPEDFATYYCQQGYSTPPTFGQGTKVEIK | binds | – | – | – |
| MAdCAM Antibody Table 1 Clone 30 (scFv) scFv: QVQLVQSGAEVKKPGASVKVSCKASGYTLTTWYMYWVRQAPGQGLEWMGWINPNRGATNYAQKFQGRVTMTRDTSTSTVYMELSSLRSEDTAVYYCAKGDLWGAMDVWGQGTLVTVSSGGGGSGGGGSGGGGSGGGGSDIQMTQSPSSLSASVGDRVTITCRASDNIGSWLAWYQQKPGKAPKLLIYAASSLQSGVPSRFSGSGSGTDFTLTISSLQPEDFATYYCQQGYSTPPTFGQGTKVEIK | binds | – | – | – |
| MAdCAM Antibody Table 1 Clone 63 (scFv) scFv: EVQLLESGGGLVKPGGSLRLSCAASGFTFDDYAMHWVRQAPGKGLEWVASITSSSAFIDYAASVKGRFTISRDDSKNTLYLQMNSLKTEDTAVYYCARERVDWNSYFDLWGRGTLVTVSSGGGGSGGGGSGGGGSGGGGSEIVMTQSPATLSVSPGERATLSCRASQGISNSYLAWYQQKPGQAPRLLIYGASTRATGIPARFSGSGSGTEFTLTISSLQSEDFAVYYCQQYYTYPPTFGPGTKVDIK | – | binds | binds | – |
| MAdCAM Antibody Table 2 Clone 2 (antibody, human IgG1, V domains shown) VH: QVQLVQSGAEVKKPGASVKVSCKASGYPFIGYYLHWVRQAPGQGLEWMGIINPSGGSTSYAQKFQGRVTMTRDTSTSTVYMELSSLRSEDTAVYYCAREGRLSYGMDAWGQGTLVTVSS VL: DIQMTQSPSSLSASVGDRVTITCRASQSISSYLAWYQQKPGKAPKLLIYGASTLESGVPSRFSGSGSGTDFTLTISSLQPEDFATYYCQQTWGPPFTFGQGTKLEIK | binds | – | – | binds |
| MAdCAM Antibody Table 2 Clone 11 (antibody, human IgG1, V domains shown) VH: EVQLLESGGGLVQPGGSLRLSCAASGFTFSDYYMNWVRQAPGKGLEWVSVIGESGGSTYYADSVKGRFTISRDNSKNTLYLQMNSLRAEDTAVYYCAADPVSRWPKHGGGDYWGQGTLVTVSS VL: DIQMTQSPSSLSASVGDRVTITCRASQGISSSLAWYQQKPGKAPKLLIYAASTLQSGVPSRFSGSGSGTDFTLTISSLQPEDFATYYCQQSYSTPWTFGQGTKVEIK | – | binds | binds | – |
| MAdCAM Antibody Table 2 Clone 32 (antibody, human IgG1, V domains shown) VH: QVQLVQSGAEVKKPGASVKVSCKASGYTLTTWYMYWVRQAPGQGLEWMGWINPNRGATNYAQKFQGRVTMTRDTSTSTVYMELSSLRSEDTAVYYCAKGDLWGAMDVWGQGTLVTVSS VL: DIQMTQSPSSLSASVGDRVTITCRASDNIGSWLAWYQQKPGKAPKLLIYAASSLQSGVPSRFSGSGSGTDFTLTISSLQPEDFATYYCQQGYSTPPTFGQGTKVEIK | binds | – | – | – |
| MAdCAM Antibody Table 2 Clone 35 (antibody, human IgG1, V domains shown) VH: QVQLVQSGAEVKKPGASVKVSCKASGYTFTGYYIHWVRQAPGQGLEWMGWMNPNSGNTGYAQKFQGRVTMTRDTSTSTVYMELSSLRSEDTAVYYCARDPGFLGYSSGGSSYDGWFDPWGQGTLVTVSS VL: DIQMTQSPSSLSASVGDRVTITCRASQSISSYLHWYQQKPGKAPKLLIYAASSLQSGVPSRFSGSGSGTDFTLTISSLQPEDFATYYCQQSYTAPYTFGQGTKLEIK | binds | – | – | – |
| MAdCAM Antibody Table 2 Clone 75 (antibody, human IgG1, V domains shown) VH: EVQLLESGGGLVQPGGSLRLSCAASGFTFSDFWMHWVRQAPGKGLEWISYISGDSGYTNYADSVKGRFTISRDNSKNTLYLQMNSLRAEDTAVYYCARDRPYYYYMDVWGKGTTVTVSS VL: DIQMTQSPSSLSASVGDRVTITCRASQSVSRSLAWYQQKPGKAPKLLIYAASSLQSGVPSRFSGSGSGTDFTLTISSLQPEDFATYYCQQYKSYPVTFGQGTKVEIK | – | binds | binds | – |
| MAdCAM Antibody Table 2 Clone 79 (antibody, human IgG1, V domains shown) VH: EVQLLESGGGLVKPGGSLRLSCAASGFTFDDYAMHWVRQAPGKGLEWVASITSSSAFIDYAASVKGRFTISRDDSKNTLYLQMNSLKTEDTAVYYCARERVDWNSYFDLWGRGTLVTVSS VL: EIVMTQSPATLSVSPGERATLSCRASQGISNSYLAWYQQKPGQAPRLLIYGASTRATGIPARFSGSGSGTEFTLTISSLQSEDFAVYYCQQYYTYPPTFGPGTKVDIK | – | binds | binds | – |
| MAdCAM Antibody Table 1 Clone 2 (scFv) scFv: QVQLVQSGAEVKKPGASVKVSCKASGYPFIGYYLHWVRQAPGQGLEWMGIINPSGGSTSYAQKFQGRVTMTRDTSTSTVYMELSSLRSEDTAVYYCAREGRLSYGMDAWGQGTLVTVSSGGGGSGGGGSGGGGSGGGGSDIQMTQSPSSLSASVGDRVTITCRASQSISSYLAWYQQKPGKAPKLLIYGASTLESGVPSRFSGSGSGTDFTLTISSLQPEDFATYYCQQTWGPPFTFGQGTKLEIK | – | binds | binds | – |
| MAdCAM Antibody Table 1 Clone 4 (scFv) scFv: QVQLVQSGAEVKKPGASVKVSCKASGGTFSSYAISWVRQAPGQGLEWMGSINPSGDTTSYAQKFQGRVTMTRDTSTSTVYMELSSLRSEDTAVYYCAKDKAQWLVGYFDYWGQGTLVTVSSGGGGSGGGGSGGGGSGGGGSDIQMTQSPSSLSASVGDRVTITCQASQDISNSLNWYQQKPGKAPKLLIYAASSLQSGVPSRFSGSGSGTDFTLTISSLQPEDFATYYCQQSYSSVITFGQGTKVEIK | – | binds | binds | – |
| MAdCAM Antibody Table 1 Clone 5 (scFv) scFv: EVQLLESGGGLVQPGGSLRLSCAASGFTFSSYWMHWVRQAPGKGLEWVSSISPGGSNIDYADSVKGRFTISRDNSKNTLYLQMNSLRAEDTAVYYCAREVQLSHYDYWGQGTLVTVSSGGGGSGGGGSGGGGSGGGGSDIQMTQSPSSLSASVGDRVTITCRASQGISNSLAWYQQKPGKAPKLLIYGASSLQSGVPSRFSGSGSGTDFTLTISSLQPEDFATYYCQQANSFPFTFGQGTKVEIK | – | binds | binds | – |
| MAdCAM Antibody Table 1 Clone 7 (scFv) scFv: QVQLVQSGAEVKKPGASVKVSCKASGYTFTGYHIHWVRQAPGQGLEWMGIINPSGGSTIYAQKFQGRVTMTRDTSTSTVYMELSSLRSEDTAVYYCAKDWSSWYLGPFDYWGQGTLVTVSSGGGGSGGGGSGGGGSGGGGSDIQMTQSPSSLSASVGDRVTITCRASQNISSSLNWYQQKPGKAPKLLIYAASSLQSGVPSRFSGSGSGTDFTLTISSLQPEDFATYYCQQSYTTPYTFGQGTKVEIK | – | binds | binds | – |
| MAdCAM Antibody Table 1 Clone 8 (scFv) scFv: EVQLLESGGGLVQPGGSLRLSCAASGFMFGDYAMHWVRQAPGKGLEWVSAISGSGGSTYYADSVKGRFTISRDNSKNTLYLQMNSLRAEDTAVYYCAKDLVVAGIWYFDLWGRGTLVTVSSGGGGSGGGGSGGGGSGGGGSDIQMTQSPSSLSASVGDRVTITCRASQGISNNLNWYQQKPGKAPKLLIYDASSLESGVPSRFSGSGSGTDFTLTISSLQPEDFATYYCQQTHSFPSTFGQGTKLEIK | binds | – | – | – |
